Laboratory results: PubChem BioAssay AID1259254 (NCATS, 2017)

Purpose: 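Genome-wide screen for genes that prevent DNA re-replication in cancer cells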 (primary screen)
Cell system: human HCT116 colorectal cancer cells
Knock-down reagent: single siRNA against human genes
Time to read-out: 3 days
Read-out: 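Imaged Hoechst DNA stain sorts each cell into a cycle phase by DNA amount; per plate, G2 fraction set to 0% for non-targeting and 100% for GMNN siRNA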
Scale: G2 robust z-score and G2 cells, % of GMNN control: higher = more G2 cells, more excess DNA replication
Rule for the call: 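An siRNA counts as active if its G2 robust z-score lies at least 5 MADs above the screen median; here such calls match roughly 38% of GMNN control or more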
Here is an unselected part of about 59,000 reagents tested. In the full data, about 1,550 (2.6%) got an active call. 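G2 share is only a proxy for re-replication; each gene was hit by three separate siRNAs, and active genes were retested.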 The numbers tell different reagents against one gene apart. Not all columns of the deposit are shown. No sequences are given here. The record does not give: the amount of reagent.

MAGED2 (GeneID 10916) #1 → G2 robust z-score = -0.797; G2 cells, % of GMNN control = -2.64; Outcome = inactive
MAGED2 (GeneID 10916) #2 → G2 robust z-score = 1.38; G2 cells, % of GMNN control = 12.7; Outcome = inactive
MAGED2 (GeneID 10916) #3 → G2 robust z-score = 0.106; G2 cells, % of GMNN control = 3.71; Outcome = inactive
DGKI (GeneID 9162) #1 → G2 robust z-score = -0.364; G2 cells, % of GMNN control = 0.405; Outcome = inactive
DGKI (GeneID 9162) #2 → G2 robust z-score = -0.721; G2 cells, % of GMNN control = -2.1; Outcome = inactive
DGKI (GeneID 9162) #3 → G2 robust z-score = -0.213; G2 cells, % of GMNN control = 1.47; Outcome = inactive
FBXO22 (GeneID 26263) #1 → G2 robust z-score = 2.73; G2 cells, % of GMNN control = 22.2; Outcome = inactive
FBXO22 (GeneID 26263) #2 → G2 robust z-score = 3.05; G2 cells, % of GMNN control = 24.4; Outcome = inactive
FBXO22 (GeneID 26263) #3 → G2 robust z-score = -0.16; G2 cells, % of GMNN control = 1.84; Outcome = inactive
OR10H2 (GeneID 26538) #1 → G2 robust z-score = 0.382; G2 cells, % of GMNN control = 5.65; Outcome = inactive
OR10H2 (GeneID 26538) #2 → G2 robust z-score = -0.091; G2 cells, % of GMNN control = 2.33; Outcome = inactive
OR10H2 (GeneID 26538) #3 → G2 robust z-score = -0.196; G2 cells, % of GMNN control = 1.59; Outcome = inactive

2 of these entries, set out differently:
OR10H2 (GeneID 26538) #2
- G2 robust z-score: -0.091
- G2 cells, % of GMNN control: 2.33
- Outcome: inactive

OR10H2 (GeneID 26538) #3
- G2 robust z-score: -0.196
- G2 cells, % of GMNN control: 1.59
- Outcome: inactive
